Measurements from PubChem BioAssay AID1439 (NMMLSC, 2008).
Screen size: about 220,000 compounds; about 770 (0.35%) were called active. The inconclusive results got no clear call from the source; some entries with a clear call stand among them for comparison. No stated cut-off is given here; in the data, active means binding response below about 49% or above about 150%; inconclusive means no clear call, values can overlap the other calls; inactive means in between.

Sequences of proteins named here, by UniProt entry; tags and fusion partners are left off.
UniProt P09471, whole entry, looked up: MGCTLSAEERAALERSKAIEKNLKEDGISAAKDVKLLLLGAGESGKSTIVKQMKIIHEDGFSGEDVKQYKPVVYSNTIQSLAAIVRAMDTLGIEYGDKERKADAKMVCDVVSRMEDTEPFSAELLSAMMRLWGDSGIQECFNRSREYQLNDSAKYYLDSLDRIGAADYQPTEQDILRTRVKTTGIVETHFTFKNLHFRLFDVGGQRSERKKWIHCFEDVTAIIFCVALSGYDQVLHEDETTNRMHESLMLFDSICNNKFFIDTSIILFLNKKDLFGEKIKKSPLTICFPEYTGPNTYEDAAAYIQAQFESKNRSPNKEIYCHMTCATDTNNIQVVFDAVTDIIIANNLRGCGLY

biological target: Guanine nucleotide-binding protein G(o) subunit alpha (Homo sapiens) (UniProt P09471); experiment: RGS7-Galphao binding modulators, primary screen, biochemical, multiplexed bead flow cytometry (AID 1439); settings: at 10 µM, actives lie on both sides;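 further: fluorescent Galphao held in activated GDP-AlF4 state binding bead-coupled RGS7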

Structure (SMILES) | binding response (% of control)
O=c1c2cc(NC(=S)N3CCCCCC3)ccc2nc2n1CCCCC2 | inconclusive: 118%
CCc1nc2c(oc3ccccc32)c(=O)[nH]1 | inactive: 100%
COC(=O)c1ccc(C2=NOC(C)(c3sc(-c4ccc(Cl)cc4)nc3C)C2)cc1 (stereo not given) | inconclusive: 96.5%
CC(C)(C)CC(C)(C)N1CNC(=S)NC1 | inconclusive: 117%
CCCc1c(NC(=O)Nc2ccc(F)cc2)cnn1-c1ccc(Cl)cc1 | inconclusive: 281%
CC[C@]1(O)CC2CN(CCc3c([nH]c4ccccc34)[C@@](C(=O)OC)(c3cc4c(cc3OC)N(C=O)[C@H]3[C@@](O)(C(=O)OC)[C@H](OC(C)=O)[C@]5(CC)C=CCN6CC[C@]43[C@@H]65)C2)C1 (stereo not given in full) | inconclusive: 113%
COc1ccc(C)cc1NC(=O)c1ccc2c(SCC(=O)O)c3c(nc2c1)CCCC3 | inconclusive: 111%
O=S(=O)(Cc1ccc(Cl)cc1)c1ncc(CO)n1Cc1ccccc1 | inactive: 110%
O=c1oc2ccccc2cc1-c1nc2c(s1)CCc1ccccc1-2 | inactive: 103%
O=C(Nc1csnn1)c1csnn1 | inconclusive: 8.27%
CC(CCOC1=NS(=O)(=O)c2ccccc21)NC(=O)C(=O)Nc1ccccc1 (stereo not given) | inconclusive: 137%
CCn1c(CC(=O)Nc2ccccc2)nnc1SCc1nc2ccccc2c(=O)[nH]1 | inconclusive: 94.2%
Cc1ccc(C(=O)NC(=S)NNC(=O)COc2ccccc2C)cc1 | inconclusive: 96.9%
CN1C(=O)N(C)c2ccc(C=O)c3cccc1c23 | inconclusive: 74.8%
N#Cc1c2n(c3c(N)ncnc13)CCCCC2 | inconclusive: 96.7%
COc1ccc(Nc2nc(=O)c3cc([N+](=O)[O-])ccc3s2)cc1 | inconclusive: 64.5%
Cc1occc1-c1nnc(SCC(=O)Nc2nc3ccccc3s2)o1 | inactive: 97.1%
O=c1/c(=C/c2ccc(O)cc2)sc2nc3cc(Br)cnc3n12 | inactive: 102%
CCN(CC)c1ccc(N=Cc2ccccc2[N+](=O)[O-])cc1 | inactive: 94.8%
Cc1nn(C)c2ncc(C(N)=O)c(Oc3ccc(Cl)cc3)c12 | inconclusive: 106%
COc1ccc(/C=C/C(=O)NC(CCSC)C(=O)O)cc1 (stereo not given) | inactive: 101%
C/C(=N\NC(=O)CN1CCN(S(=O)(=O)c2ccc(C)cc2)CC1)c1ccncc1 | inconclusive: 66.2%
O=C(Nc1cccc(Cl)c1N1CCOCC1)c1cccnc1Cl | inconclusive: 80.6%
O=C(NNC(=O)c1ccccc1Cl)c1ccccc1Cl | inconclusive: 90.7%
CC12CN3CCN(CC(C3)/C1=N\NC(=O)c1ccccc1N)C2 | inconclusive: 58.9%

Two of the compounds above, as tab-separated lines.
Structure (SMILES)	binding response (% of control)
N#Cc1c2n(c3c(N)ncnc13)CCCCC2	inconclusive: 96.7%
COc1ccc(Nc2nc(=O)c3cc([N+](=O)[O-])ccc3s2)cc1	inconclusive: 64.5%
